PubChem BioAssay AID504793 – Drosophila RNAi Screening Center | 2011

- Assay: 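Genes required for cells to halt at G2/M after double-strand DNA breaks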 (primary screen)
- Cells: Drosophila S2R+ cells
- Reagents: long dsRNA against Drosophila genes, about 0.25 µg dsRNA per well
- Timing: 4 days of dsRNA, then 4 hours of drug before read-out
- Challenge: doxorubicin 0.5 µM for 4 hours to cause double-strand breaks, in cells also given a low, harmless dose of dsRNA against nbs to sensitise the assay
- Read-out: 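Per-well count of mitotic cells stained for phospho-histone H3 after doxorubicin exposure, used as mitotic index; counts are raw and not normalised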
- Direction: mitotic cells: higher = more cells in mitosis, weaker G2 arrest
- Call rule: 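Genes are called active only when high mitotic counts were reproduced with independent dsRNAs and mitosis was checked for delay without damage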
- Meaning of the calls: active = confirmed in follow-up tests; inactive = not confirmed
In all, the deposit lists about 23,000 reagents; below is an unselected part of those with a known target gene and a result. Over the whole deposit, 62 (0.27%) got an active call. 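Calls come from follow-up tests whose scores are not deposited, so confirmed genes may have low counts here; counts are not normalised per plate.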 Raw values vary from plate to plate and are shown uncorrected. Unmarked entries are inactive. Names joined by + are all predicted targets of the reagent.

Gene	dsRNA	mitotic cells, replicate 1
Tlk (Tousled-like kinase)	DRSC17731	9
Tlk (Tousled-like kinase)	DRSC22924	13
Tlk (Tousled-like kinase)	DRSC22926	17
Tlk (Tousled-like kinase)	DRSC23163	13
NfI (Nuclear factor I)	DRSC17158	10
disp (dispatched)	DRSC12376	3
CG43980	DRSC11500	5
CG43980	DRSC11646	4
CG43980	DRSC26495	5
CG15824	DRSC00473	4
CG15824	DRSC27412	6
CG8774	DRSC16445	5
CG6040	DRSC15954	7
CG6040	DRSC26100	5
svr (silver)	DRSC17293	5
svr (silver)	DRSC18841	13
svr (silver)	DRSC27397	6
Obp19c (Odorant-binding protein 19c)	DRSC20528	13
CG8768	DRSC07259	3
Tpi (Triose phosphate isomerase)	DRSC16888	13
CG10750	DRSC02105	8
CG10750	DRSC29624	5
MstProx + Mst84Da	DRSC12597	1
Pdk (Pyruvate dehydrogenase kinase)	DRSC07504	5
CG8299	DRSC07139	7
CG8299	DRSC25580	7
Myc	DRSC23360	4
Vps8 (Vacuolar protein sorting 8)	DRSC09705	10
CG5516	DRSC15826	4
CG5516	DRSC21753	5
CG5516	DRSC27984	4
betaNACtes2 (Nascent-associated complex beta-subunit-like, testis 2)	DRSC19792	12
CG15233	DRSC04967	9
Smn (survival motor neuron)	DRSC10223	13
Inx3 (Innexin 3)	DRSC14857	2
Inx3 (Innexin 3)	DRSC24037	11
morgue (modifier of rpr and grim, ubiquitously expressed)	DRSC00264	2
CG31562 (retired record)	DRSC12273	8
CG31562 (retired record)	DRSC12274	4
CG15412	DRSC00427	6
stas (Stasimon)	DRSC20104	9
tRNA:Leu-CAA-2-3 (transfer RNA:Leucine-CAA 2-3)	DRSC13633	5
CG11617	DRSC00321	5
CG11617	DRSC21786	8
CG11617	DRSC28154	8
Alr (Augmenter of liver regeneration)	DRSC19469	6
CG42457 (retired record) + cpo	DRSC13273	7
CG42457 (retired record) + cpo	DRSC23006	14
CG42457 (retired record) + cpo	DRSC25799	7
CG13215	DRSC06337	10
Tbce (Tubulin-binding cofactor E)	DRSC04897	6
PpV (Protein phosphatase V)	DRSC18700	30
PpV (Protein phosphatase V)	DRSC23307	5
PpV (Protein phosphatase V)	DRSC29344	8
CG15366 (retired record)	DRSC18039	9
ND-B15 (NADH dehydrogenase (ubiquinone) B15 subunit)	DRSC06199	8
Tgt (tRNA-guanine transglycosylase)	DRSC00672	13
CG13159	DRSC06283	11
CG13159	DRSC28093	5
mtt (mangetout)	DRSC05106	7
mtt (mangetout)	DRSC05107	8
mtt (mangetout)	DRSC06753	6
mtt (mangetout)	DRSC07235	5
Hrd3 (HMG-coA reductase degradation 3)	DRSC14156	5
Non3 (Novel nucleolar protein 3)	DRSC16359	8
CG13458	DRSC10005	2
CG13458	DRSC24392	5
CG31233	DRSC15888	5
PpD3 (Protein phosphatase D3)	DRSC16796	4

Next part (3 carried over from the part before).
Gene	dsRNA	mitotic cells, replicate 1
CG13458	DRSC24392	5
CG31233	DRSC15888	5
PpD3 (Protein phosphatase D3)	DRSC16796	4
Gbeta13F (G protein beta subunit 13F)	DRSC20247	5
CycD (Cyclin D)	DRSC20233	8
CycD (Cyclin D)	DRSC25031	1
GluRIIE (Glutamate receptor IIE)	DRSC13431	10
GluRIIE (Glutamate receptor IIE)	DRSC25745	6
CG13046	DRSC09927	3
U2af50 (U2 small nuclear riboprotein auxiliary factor 50)	DRSC20297	3
U2af50 (U2 small nuclear riboprotein auxiliary factor 50)	DRSC22867	14
CG5550	DRSC06943	6
CG5550	DRSC29735	13
Pld3 (Phospholipase D family member 3)	DRSC03167	8
CG42588	DRSC09820	5
CG42588	DRSC22121	7
CG42588	DRSC26914	3
nopo (no poles)	DRSC06918	4
CG13272	DRSC02249	6
CG13272	DRSC22910	17
CG13272	DRSC28613	2
CG43902	DRSC17999	15
CG43902	DRSC25064	5
CG32830 (retired record)	DRSC01162	8
CG32830 (retired record)	DRSC23151	16
CG43078	DRSC10292	7
CG43078	DRSC10608	11
CG43078	DRSC21541	8
CG43078	DRSC22327	10
CG43078	DRSC27481	3
Gapvd1 (GTPase activating protein and VPS9 domains 1)	DRSC19752	12
Gapvd1 (GTPase activating protein and VPS9 domains 1)	DRSC24025	4
CG32532	DRSC19556	4
CG32532	DRSC19557	8
CG32532	DRSC21370	10
hog	DRSC19057	3
hog	DRSC26603	6
pk (prickle)	DRSC06178	2
pk (prickle)	DRSC07664	4
pk (prickle)	DRSC24979	3
CG42819 + CG42820	DRSC28699	5
Dbct (Dihydrolipoamide branched chain transacylase E2)	DRSC19951	6
Dbct (Dihydrolipoamide branched chain transacylase E2)	DRSC25764	5
Lrrk (Leucine-rich repeat kinase)	DRSC15816	10
Lrrk (Leucine-rich repeat kinase)	DRSC21971	13
Lrrk (Leucine-rich repeat kinase)	DRSC26140	5
